# Measured values reported in the supplement of paper PMC8728848.
# The other results are listed elsewhere or left out.
# B1: Mermaid1 (Stilbonema majum) (protein)
# chain: MGSSHHHHHHSSGLVPRGSHMAASGWLRSPQGTVVKLYRRSLSWSKADEFCKDVDGRLVVDRTADMHLFLIKNVLKEKKSRVWVGLRRTAPHSRTWIWSDGTRQNEDDLDANLWLRDEPNDAAGEEECALFMYSPWEKAWGLNDYLCRGGCRSYQFICEKWIR
# How the values were obtained:
# Experiment in all cases: glycan array binding signal (z-score within array); higher = stronger binding
# Conditions in all cases: glycan notation: IUPAC condensed, linker removed
# Gal(b1-4)Glc = target: Gal(b1-4)Glc
# Outline: (§1)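 From the Consortium for Functional Glycomics database, 3228 arrays were curated, keeping only those whose protein sequence was available. Binding is given as a within-array Z-score averaged across arrays sharing a protein sequence and across linkers. Negative Z-scores can be read as non-binding.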
# Gal(b1-4)Glc6S = target: Gal(b1-4)Glc6S
# Outline: as §1
# Gal(b1-4)GlcNAc = target: Gal(b1-4)GlcNAc
# Outline: as §1
# [1] = target: Gal(b1-4)GlcNAc(a1-6)Gal(b1-4)GlcNAc
# Outline: as §1
# Gal(b1-4)GlcNAc(b1-2)Man = target: Gal(b1-4)GlcNAc(b1-2)Man
# Outline: as §1
# [2] = target: Gal(b1-4)GlcNAc(b1-2)Man(a1-3)Man(b1-4)GlcNAc(b1-4)GlcNAc
# Outline: as §1
# [3] = target: Gal(b1-4)GlcNAc(b1-2)Man(a1-3)[Gal(b1-4)GlcNAc(b1-2)Man(a1-6)]Man(b1-4)GlcNAc(b1-4)GlcNAc
# Outline: as §1
# [4] = target: Gal(b1-4)GlcNAc(b1-2)Man(a1-3)[Gal(b1-4)GlcNAc(b1-2)Man(a1-6)]Man(b1-4)GlcNAc(b1-4)[Fuc(a1-6)]GlcNAc
# Outline: as §1
# [5] = target: Gal(b1-4)GlcNAc(b1-2)Man(a1-3)[Gal(b1-4)GlcNAc(b1-2)Man(a1-6)][Gal(b1-4)GlcNAc(b1-4)]Man(b1-4)GlcNAc(b1-4)[Fuc(a1-6)]GlcNAc
# Outline: as §1
# [6] = target: Gal(b1-4)GlcNAc(b1-2)Man(a1-3)[Gal(b1-4)GlcNAc(b1-2)Man(a1-6)][GlcNAc(b1-4)]Man(b1-4)GlcNAc(b1-4)[Fuc(a1-6)]GlcNAc
# Outline: as §1
# [7] = target: Gal(b1-4)GlcNAc(b1-2)Man(a1-3)[GlcNAc(b1-2)Man(a1-6)]Man(b1-4)GlcNAc(b1-4)GlcNAc
# Outline: as §1
# [8] = target: Gal(b1-4)GlcNAc(b1-2)Man(a1-3)[GlcNAc(b1-4)][Gal(b1-4)GlcNAc(b1-2)Man(a1-6)]Man(b1-4)GlcNAc(b1-4)GlcNAc
# Outline: as §1
# [9] = target: Gal(b1-4)GlcNAc(b1-2)Man(a1-3)[Man(a1-6)]Man(b1-4)GlcNAc(b1-4)GlcNAc
# Outline: as §1
# [10] = target: Gal(b1-4)GlcNAc(b1-2)Man(a1-6)Man(b1-4)GlcNAc(b1-4)GlcNAc
# Outline: as §1
# [11] = target: Gal(b1-4)GlcNAc(b1-2)Man(a1-6)[GlcNAc(b1-2)Man(a1-3)]Man(b1-4)GlcNAc(b1-4)GlcNAc
# Outline: as §1
# [12] = target: Gal(b1-4)GlcNAc(b1-2)Man(a1-6)[Man(a1-3)]Man(b1-4)GlcNAc(b1-4)GlcNAc
# Outline: as §1
# [13] = target: Gal(b1-4)GlcNAc(b1-2)[Gal(b1-4)GlcNAc(b1-4)]Man(a1-3)[Gal(b1-4)GlcNAc(b1-2)Man(a1-6)]Man(b1-4)GlcNAc(b1-4)GlcNAc
# Outline: as §1
# [14] = target: Gal(b1-4)GlcNAc(b1-2)[Gal(b1-4)GlcNAc(b1-4)]Man(a1-3)[Gal(b1-4)GlcNAc(b1-2)[Gal(b1-4)GlcNAc(b1-6)]Man(a1-6)]Man(b1-4)GlcNAc(b1-4)GlcNAc
# Outline: as §1
# [15] = target: Gal(b1-4)GlcNAc(b1-2)[Gal(b1-4)GlcNAc(b1-4)]Man(a1-3)[GlcNAc(b1-4)][Gal(b1-4)GlcNAc(b1-2)Man(a1-6)]Man(b1-4)GlcNAc(b1-4)GlcNAc
# Outline: as §1
# [16] = target: Gal(b1-4)GlcNAc(b1-2)[Gal(b1-4)GlcNAc(b1-4)]Man(a1-3)[GlcNAc(b1-4)][Gal(b1-4)GlcNAc(b1-2)[Gal(b1-4)GlcNAc(b1-6)]Man(a1-6)]Man(b1-4)GlcNAc(b1-4)GlcNAc
# Outline: as §1
# [17] = target: Gal(b1-4)GlcNAc(b1-2)[Gal(b1-4)GlcNAc(b1-6)]Man(a1-6)[Gal(b1-4)GlcNAc(b1-2)Man(a1-3)]Man(b1-4)GlcNAc(b1-4)GlcNAc
# Outline: as §1
# [18] = target: Gal(b1-4)GlcNAc(b1-2)[Gal(b1-4)GlcNAc(b1-6)]Man(a1-6)[Gal(b1-4)GlcNAc(b1-2)Man(a1-3)]Man(b1-4)GlcNAc(b1-4)[Fuc(a1-6)]GlcNAc
# Outline: as §1
binder,measurement,setting,value
B1,glycan array binding signal (z-score),Gal(b1-4)Glc,-0.607
same,glycan array binding signal (z-score),Gal(b1-4)Glc6S,1.17
same,glycan array binding signal (z-score),Gal(b1-4)GlcNAc,-0.713
same,glycan array binding signal (z-score),[1],-0.161
same,glycan array binding signal (z-score),Gal(b1-4)GlcNAc(b1-2)Man,-0.052
same,glycan array binding signal (z-score),[2],-0.913
same,glycan array binding signal (z-score),[3],-0.772
same,glycan array binding signal (z-score),[4],-0.453
same,glycan array binding signal (z-score),[5],-0.657
same,glycan array binding signal (z-score),[6],-0.863
same,glycan array binding signal (z-score),[7],-0.648
same,glycan array binding signal (z-score),[8],-0.595
same,glycan array binding signal (z-score),[9],2.41
same,glycan array binding signal (z-score),[10],-0.428
same,glycan array binding signal (z-score),[11],-0.397
same,glycan array binding signal (z-score),[12],-0.705
same,glycan array binding signal (z-score),[13],0.823
same,glycan array binding signal (z-score),[14],-0.739
same,glycan array binding signal (z-score),[15],-0.873
same,glycan array binding signal (z-score),[16],-1.01
same,glycan array binding signal (z-score),[17],-0.567
same,glycan array binding signal (z-score),[18],-0.512

# Some of the entries so far, as tab-separated lines:
binder	measurement	setting	value
B1	glycan array binding signal (z-score)	Gal(b1-4)GlcNAc	-0.713
same	glycan array binding signal (z-score)	[1]	-0.161
same	glycan array binding signal (z-score)	Gal(b1-4)GlcNAc(b1-2)Man	-0.052
same	glycan array binding signal (z-score)	[2]	-0.913
same	glycan array binding signal (z-score)	[3]	-0.772
